The exact form of at least one protein or probe is not confirmed.
System: SlREV (1-264) (Solanum lycopersicum)
Experiment: EMSA
Details: no DTM, binding is inhibited dose-dependently by wild-type DTM (1, 2, 4 uL), less by DTM L8F and DTM L8F,L22A; LightShift EMSA kit binding buffer; 1 uL ivt SlREV; 20 min on ice with DTM, then 20 min at room temperature with DNA; 6% native PAGE; salt and pH not stated; protein translated in vitro; protein details: C-terminal HA (from cloning primer K-REV-HA-N-R); label: Cy5

“CAGATCTGTAATGATTACGAGAAT (double strand) [HB9 (HB-9) duplex]”: binds.

— publication PMC6478692
